Experimental data: PMC5461002

B1: endothelial protein C receptor expressed by HBMECs (receptor, UniProt Q9UNN8 18-238)
chain: SQDASDGLQRLHMLQISYFRDPYHVWYQGNASLGGHLTHVLEGPDTNTTIIQLQPLQEPESWARTQSGLQSYLLQFHGLVRLVHQERTLAFPLTIRCFLGCELPPEGSRAHVFFEVAVNGSSFVSFRPERALWQADTQVTSGVVTFTLQQLNAYNRTRYELREFLEDTCVQYVQKHISAENTKGSQTSRSYTSLVLGVLVGSFIIAGVAVGIFLCTGGRRC
B2: mouse pIgR (R&D Systems, catalog no. CF-2800) (receptor, UniProt O70570 19-645)
chain: KSPIFGPQEVSSIEGDSVSITCYYPDTSVNRHTRKYWCRQGASGMCTTLISSNGYLSKEYSGRANLINFPENNTFVINIEQLTQDDTGSYKCGLGTSNRGLSFDVSLEVSQVPELPSDTHVYTKDIGRNVTIECPFKRENAPSKKSLCKKTNQSCELVIDSTEKVNPSYIGRAKLFMKGTDLTVFYVNISHLTHNDAGLYICQAGEGPSADKKNVDLQVLAPEPELLYKDLRSSVTFECDLGREVANEAKYLCRMNKETCDVIINTLGKRDPDFEGRILITPKDDNGRFSVLITGLRKEDAGHYQCGAHSSGLPQEGWPIQTWQLFVNEESTIPNRRSVVKGVTGGSVAIACPYNPKESSSLKYWCRWEGDGNGHCPVLVGTQAQVQEEYEGRLALFDQPGNGTYTVILNQLTTEDAGFYWCLTNGDSRWRTTIELQVAEATREPNLEVTPQNATAVLGETFTVSCHYPCKFYSQEKYWCKWSNKGCHILPSHDEGARQSSVSCDQSSQLVSMTLNPVSKEDEGWYWCGVKQGQTYGETTAIYIAVEERTRGSSHVNPTDANARAKVALEEEVVDSSISEKENKAIPNPGPFANEREIQNVGDQAQENRASGDAGSADGQSRSSSSK

Key:
[1] = target: RrgA on the surface of S. pneumoniae TIGR4 (S. pneumoniae TIGR4); test: pull-down; whole pneumococci (10^7 CFU/ml in PBS) incubated with HBMEC lysate 1 h at 4°C, bacteria pelleted, Western blot of the pellet for the receptor; pneumolysin as loading control
[2] = target: pneumococcal surface protein A (codons 32-774) (S. pneumoniae TIGR4); test: co-IP; pneumococcal protein (1-5 µg) held on magnetic Dynabeads by its antibody (anti-RrgA antiserum; anti-GST antibody for the control), then pIgR or PECAM-1 added, 30 min at room temperature, washed with PBS-T, Western blot; both purified
[3] = target: 6xHis-RrgA(39-868) (S. pneumoniae TIGR4); test: as above
[4] = target: pneumococcal protein glutathione S-transferase (S. pneumoniae); test: as above

Binder	binding [1]	binding [2]	binding [3]	binding [4]
B1	no binding			
B2		no binding	binds	no binding

Results are given in words; binding and its absence hold for the method and conditions named. Binding seen in cells or lysates may run through a third protein. For some of these results: A result given as binding can be weak or reduced; the word gives no strength.
